Test results reported in article PMC7701572.
No constants are given. Whether binding was seen depends on the method and setting. Binding seen in cells or lysates may run through a third protein. Some entries that bind do so weakly or less than the wild type.

Protein sequences, listed by entry. Tags and fused reporters are not part of them.
UniProt Q96B97: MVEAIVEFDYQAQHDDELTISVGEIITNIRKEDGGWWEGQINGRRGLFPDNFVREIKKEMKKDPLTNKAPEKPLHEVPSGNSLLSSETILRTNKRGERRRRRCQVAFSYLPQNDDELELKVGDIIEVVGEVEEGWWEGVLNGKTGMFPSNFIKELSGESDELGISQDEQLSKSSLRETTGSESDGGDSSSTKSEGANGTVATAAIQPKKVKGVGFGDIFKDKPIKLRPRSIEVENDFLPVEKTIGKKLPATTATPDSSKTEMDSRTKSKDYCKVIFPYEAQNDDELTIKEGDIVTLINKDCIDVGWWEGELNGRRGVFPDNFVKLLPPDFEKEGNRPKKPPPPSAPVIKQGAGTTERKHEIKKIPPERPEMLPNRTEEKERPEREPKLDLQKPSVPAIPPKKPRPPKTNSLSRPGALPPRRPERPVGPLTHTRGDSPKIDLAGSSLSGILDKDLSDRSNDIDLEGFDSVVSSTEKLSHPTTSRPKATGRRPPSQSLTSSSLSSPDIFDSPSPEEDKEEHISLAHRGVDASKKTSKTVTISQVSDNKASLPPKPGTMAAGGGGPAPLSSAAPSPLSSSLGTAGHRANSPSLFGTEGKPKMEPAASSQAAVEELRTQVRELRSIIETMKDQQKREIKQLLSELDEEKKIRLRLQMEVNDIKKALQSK

Target: CIN85 (human (endogenous in HK-2)) (UniProt Q96B97)
Assay: co-IP; endogenous proteins in HK-2 cells (normal-glucose and high-glucose conditions); antibodies anti-ARAP1 and anti-CIN85, IgG as negative control; performed as previously described (ref. 15)

binding: binds
B1: ARAP1 (protein, UniProt Q96P48 1-1450)
chain: MAEAGDAALSVAEWLRALHLEQYTGLFEQHGLVWATECQGLSDTRLMDMGMLLPGHRRRILAGLLRAHTSPAPAPRPTPRPVPMKRHIFRSPPVPATPPEPLPTTTEDEGLPAAPPIPPRRSCLPPTCFTTPSTAAPDPVLPPLPAKRHLAELSVPPVPPRTGPPRLLVSLPTKEEESLLPSLSSPPQPQSEEPLSTLPQGPPQPPSPPPCPPEIPPKPVRLFPEFDDSDYDEVPEEGPGAPARVMTKKEEPPPSRVPRAVRVASLLSEGEELSGDDQGDEEEDDHAYEGVPNGGWHTSSLSLSLPSTIAAPHPMDGPPGGSTPVTPVIKAGWLDKNPPQGSYIYQKRWVRLDTDHLRYFDSNKDAYSKRFISVACISHVAAIGDQKFEVITNNRTFAFRAESDVERKEWMQALQQAMAEQRARARLSSAYLLGVPGSEQPDRAGSLELRGFKNKLYVAVVGDKVQLYKNLEEYHLGIGITFIDMSVGNVKEVDRRSFDLTTPYRIFSFSADSELEKEQWLEAMQGAIAEALSTSEVAERIWAAAPNRFCADCGAPQPDWASINLCVVICKRCAGEHRGLGAGVSKVRSLKMDRKVWTETLIELFLQLGNGAGNRFWAANVPPSEALQPSSSPSTRRCHLEAKYREGKYRRYHPLFGNQEELDKALCAAVTTTDLAETQALLGCGAGINCFSGDPEAPTPLALAEQAGQTLQMEFLRNNRTTEVPRLDSMKPLEKHYSVVLPTVSHSGFLYKTASAGKLLQDRRAREEFSRRWCVLGDGVLSYFENERAVTPNGEIRASEIVCLAVPPPDTHGFEHTFEVYTEGERLYLFGLESAEQAHEWVKCIAKAFVPPLAEDLLARDFERLGRLPYKAGLSLQRAQEGWFSLSGSELRAVFPEGPCEEPLQLRKLQELSIQGDSENQVLVLVERRRTLYIQGERRLDFMGWLGAIQKAAASMGDTLSEQQLGDSDIPVIVYRCVDYITQCGLTSEGIYRKCGQTSKTQRLLESLRQDARSVHLKEGEQHVDDVSSALKRFLRDLPDGLFTRAQRLTWLEASEIEDEEEKVSRYRELLVRLPPVNRATVKALISHLYCVQCFSDTNQMNVHNLAIVFGPTLFQTDGQDYKAGRVVEDLINHYVVVFSVDEEELRKQREEITAIVKMRVAGTASGTQHAGDFICTVYLEEKKAETEQHIKVPASMTAEELTLEILDRRNVGIREKDYWTCFEVNEREEAERPLHFAEKVLPILHGLGTDSHLVVKKHQAMEAMLLYLASRVGDTKHGMMKFREDRSLLGLGLPSGGFHDRYFILNSSCLRLYKEVRSQRPWSGAPETSHRPEKEWPIKSLKVYLGVKKKLRPPTCWGFTVVHETEKHEKQQWYLCCDTQMELREWFATFLFVQHDGLVWPSEPSRVSRAVPEVRLGSVSLIPLRGSENEMRRSVAAFTADPLSLLRNV
